B1: SYM6/ΔΔ: SYM6 FGF-1 mutant plus both Δ104-106 and Δ120-122 deletion mutations, SEQ ID NO: 1 (protein)
chain: FNLPPGNYKKPKLLYCSNGGHFLRILPDGTVDGTRDRSDQHIQFQLSAESVGEVYIKSTETGQYLAIDTDGLVYGSQTPNEECLFLERLEENHYNTYISKKHGWFLGIKKNGSVKGTHYGQKAILFLPLPVSSD
modifications: Human FGF-1 mutant SYM6DD

Assay: Isothermal titration calorimetry, affinity for sucrose octasulfate
Type: binding
Conditions: ITC, 298K, pH 6.60, single-site model

Row | Molecule | Stoichiometry (n) | ΔH [kcal/mol]
1 | WT*: Wild type (his-tagged) 140 amino acid form of human FGF-1, SEQ ID NO: 4 [reference compound] | 1.22 ± 0.03 | -1.6 ± 0.072
2 | B1 | 1.00 ± 0.09 | -2.13 ± 0.287
